The source of these data is paper PMC12391806.

By UniProt entry, the sequences of proteins in these tests, tags left out.
UniProt P49674: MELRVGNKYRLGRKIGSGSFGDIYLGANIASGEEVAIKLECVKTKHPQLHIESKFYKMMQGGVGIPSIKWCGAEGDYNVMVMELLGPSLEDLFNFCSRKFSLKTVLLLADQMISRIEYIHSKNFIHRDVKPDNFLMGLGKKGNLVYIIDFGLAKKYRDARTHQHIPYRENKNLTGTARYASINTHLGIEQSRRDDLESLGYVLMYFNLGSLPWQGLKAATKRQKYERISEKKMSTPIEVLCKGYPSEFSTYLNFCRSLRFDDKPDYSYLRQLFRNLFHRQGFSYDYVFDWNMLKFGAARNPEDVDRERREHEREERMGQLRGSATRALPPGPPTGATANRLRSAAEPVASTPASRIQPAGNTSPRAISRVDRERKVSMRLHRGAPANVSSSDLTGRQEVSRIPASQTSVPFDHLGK

The assay addresses V5-tagged CK1ε (UniProt P49674). Briefly: co-IP; HEK293T cotransfected with Flag-SRSF10 (WT) or its truncation mutants and CK1ε-V5; immunoprecipitated with anti-V5 beads (Fig. 8A, B).

Results are given in words; binding and its absence hold for the method and conditions named. Binding seen in cells or lysates may run through a third protein. Some binding calls cover weakened binding; strength is not graded here. Sequences can lack the tags named with a protein.

B1: Flag-tagged SRSF10 truncation mutant 85 to 170 (domain or fragment, UniProt O75494 85-170)
chain: FAQGDRKTPNQMKAKEGRNVYSSSRYDDYDRYRRSRSRSYERRRSRSRSFDYNYRRSYSPRNSRPTGRPRRSRSHSDNDRFKHRNR
On to B1, for which the binding entry is reported as “binds”.

B2: Flag-tagged SRSF10 with the 85 to 170 region deleted (protein, UniProt O75494)
chain: MSRYLRPPNTSLFVRNVADDTRSEDLRREFGRYGPIVDVYVPLDFYTRRPRGFAYVQFEDVRDAEDALHNLDRKWICGRQIEIQSFSRSKSNSRSRSKSQPKKEMKAKSRSRSASHTKTRGTSKTDSKTHYKSGSRYEKESRKKEPPRSKSQSRSQSRSRSKSRSRSWTSPKSSGH
Consider B2, for which the binding entry was “no binding”.
